Assay [1] deals with T1, tankyrase-1 (endogenous, mouse) (mouse (endogenous in BMDMs, MDFs, MEFs)) (UniProt Q6PFX9).
T1 sequence: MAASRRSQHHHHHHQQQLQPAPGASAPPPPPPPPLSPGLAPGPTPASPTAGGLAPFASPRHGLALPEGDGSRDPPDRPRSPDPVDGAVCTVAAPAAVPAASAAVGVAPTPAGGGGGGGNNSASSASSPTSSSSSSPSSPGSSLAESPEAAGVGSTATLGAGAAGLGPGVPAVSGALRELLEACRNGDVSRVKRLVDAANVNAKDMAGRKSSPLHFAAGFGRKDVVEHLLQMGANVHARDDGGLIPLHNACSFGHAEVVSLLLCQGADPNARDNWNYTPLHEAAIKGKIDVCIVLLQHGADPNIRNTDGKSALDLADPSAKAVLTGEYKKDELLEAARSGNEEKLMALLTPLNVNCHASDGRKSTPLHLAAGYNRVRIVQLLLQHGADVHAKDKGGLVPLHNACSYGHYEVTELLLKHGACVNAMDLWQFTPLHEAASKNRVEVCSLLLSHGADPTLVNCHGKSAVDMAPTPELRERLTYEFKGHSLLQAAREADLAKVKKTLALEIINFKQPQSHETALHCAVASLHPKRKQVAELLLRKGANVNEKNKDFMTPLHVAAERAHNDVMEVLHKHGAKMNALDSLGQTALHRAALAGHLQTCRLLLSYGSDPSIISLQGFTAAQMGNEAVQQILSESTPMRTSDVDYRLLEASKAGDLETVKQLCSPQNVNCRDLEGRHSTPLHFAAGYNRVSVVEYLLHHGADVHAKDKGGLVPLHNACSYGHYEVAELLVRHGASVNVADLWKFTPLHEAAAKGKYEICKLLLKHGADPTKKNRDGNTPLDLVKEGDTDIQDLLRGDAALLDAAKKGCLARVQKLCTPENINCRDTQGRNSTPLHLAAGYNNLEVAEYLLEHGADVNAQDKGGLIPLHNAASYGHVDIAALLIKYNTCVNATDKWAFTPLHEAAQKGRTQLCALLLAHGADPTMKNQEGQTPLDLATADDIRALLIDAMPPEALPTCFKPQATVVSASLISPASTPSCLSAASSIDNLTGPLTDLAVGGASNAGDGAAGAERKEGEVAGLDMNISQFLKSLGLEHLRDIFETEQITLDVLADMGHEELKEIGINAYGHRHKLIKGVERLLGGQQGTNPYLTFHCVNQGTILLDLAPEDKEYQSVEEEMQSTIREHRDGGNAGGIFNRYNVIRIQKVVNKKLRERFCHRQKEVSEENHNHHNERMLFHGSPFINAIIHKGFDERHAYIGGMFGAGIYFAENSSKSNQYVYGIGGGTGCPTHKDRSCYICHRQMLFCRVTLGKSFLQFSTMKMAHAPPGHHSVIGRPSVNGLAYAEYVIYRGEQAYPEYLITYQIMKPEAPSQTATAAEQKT
Briefly: co-IP.

Chains of the proteins cited; added tags and fusions are not shown. Residues count along the entry.
UniProt Q9NTX7, residues 92-168: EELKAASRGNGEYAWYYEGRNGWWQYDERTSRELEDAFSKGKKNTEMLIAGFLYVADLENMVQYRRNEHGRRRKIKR
UniProt P11103: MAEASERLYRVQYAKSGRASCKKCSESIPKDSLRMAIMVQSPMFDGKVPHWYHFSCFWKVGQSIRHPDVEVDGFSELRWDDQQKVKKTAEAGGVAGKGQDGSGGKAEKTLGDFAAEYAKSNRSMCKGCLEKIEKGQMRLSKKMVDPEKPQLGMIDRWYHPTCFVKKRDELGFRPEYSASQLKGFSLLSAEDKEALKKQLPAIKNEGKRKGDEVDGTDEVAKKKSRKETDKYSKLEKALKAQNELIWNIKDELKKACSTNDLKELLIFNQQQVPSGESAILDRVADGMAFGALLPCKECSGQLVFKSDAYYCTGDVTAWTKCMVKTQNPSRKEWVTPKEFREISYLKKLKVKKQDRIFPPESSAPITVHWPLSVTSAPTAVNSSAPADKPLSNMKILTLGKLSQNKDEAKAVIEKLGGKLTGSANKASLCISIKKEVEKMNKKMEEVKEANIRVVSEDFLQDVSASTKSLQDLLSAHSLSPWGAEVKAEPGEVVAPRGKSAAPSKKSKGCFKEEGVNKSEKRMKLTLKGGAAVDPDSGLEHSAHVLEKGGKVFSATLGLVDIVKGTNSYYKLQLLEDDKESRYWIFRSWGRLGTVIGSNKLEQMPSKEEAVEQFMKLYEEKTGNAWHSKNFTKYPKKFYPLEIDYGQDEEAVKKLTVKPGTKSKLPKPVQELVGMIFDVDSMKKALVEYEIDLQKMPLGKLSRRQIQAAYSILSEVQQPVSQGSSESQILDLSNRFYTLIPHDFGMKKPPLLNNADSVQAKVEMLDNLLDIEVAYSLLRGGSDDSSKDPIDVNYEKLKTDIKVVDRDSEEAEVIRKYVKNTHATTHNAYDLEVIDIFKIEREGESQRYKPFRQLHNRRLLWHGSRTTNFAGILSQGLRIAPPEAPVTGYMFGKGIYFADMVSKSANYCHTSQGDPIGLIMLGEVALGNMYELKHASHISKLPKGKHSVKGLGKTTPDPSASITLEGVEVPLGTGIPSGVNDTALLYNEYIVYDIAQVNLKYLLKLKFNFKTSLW

Assay [2] concerns the target GST fusion of the wild-type WWE domain of RNF146 (human) (UniProt Q9NTX7). In words: pull-down.
The target is the same in assay [3]. Briefly: pull-down. The source holds these as a separate data set.
Assay [4] shares this target. In words: pull-down. This is another data set of the same source.
Assay [5] concerns the target T2, RIPK1 (endogenous, mouse) (mouse (endogenous in BMDMs, MDFs, MEFs)) (UniProt Q60855).
T2 sequence: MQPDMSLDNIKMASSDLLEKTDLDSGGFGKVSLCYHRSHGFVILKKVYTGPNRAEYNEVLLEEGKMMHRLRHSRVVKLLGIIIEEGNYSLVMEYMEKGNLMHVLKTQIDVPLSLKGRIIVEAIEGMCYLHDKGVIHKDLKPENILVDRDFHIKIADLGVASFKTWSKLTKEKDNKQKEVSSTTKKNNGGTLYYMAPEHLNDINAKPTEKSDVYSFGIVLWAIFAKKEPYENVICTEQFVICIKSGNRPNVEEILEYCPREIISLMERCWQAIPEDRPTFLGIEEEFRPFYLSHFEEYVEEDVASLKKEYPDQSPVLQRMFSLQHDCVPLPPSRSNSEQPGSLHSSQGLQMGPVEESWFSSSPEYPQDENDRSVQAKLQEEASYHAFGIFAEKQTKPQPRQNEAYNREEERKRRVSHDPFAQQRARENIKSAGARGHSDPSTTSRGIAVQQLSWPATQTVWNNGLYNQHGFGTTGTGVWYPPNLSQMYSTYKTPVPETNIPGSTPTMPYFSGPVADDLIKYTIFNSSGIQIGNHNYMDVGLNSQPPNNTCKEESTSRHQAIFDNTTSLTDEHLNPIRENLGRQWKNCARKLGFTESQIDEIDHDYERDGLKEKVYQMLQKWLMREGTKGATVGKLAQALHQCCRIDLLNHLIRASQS
Briefly: co-IP.

The target of assay [6] is T3, cleaved caspase-8 (endogenous, mouse) (mouse (endogenous in BMDMs, MDFs, MEFs)) (UniProt O89110).
T3 sequence: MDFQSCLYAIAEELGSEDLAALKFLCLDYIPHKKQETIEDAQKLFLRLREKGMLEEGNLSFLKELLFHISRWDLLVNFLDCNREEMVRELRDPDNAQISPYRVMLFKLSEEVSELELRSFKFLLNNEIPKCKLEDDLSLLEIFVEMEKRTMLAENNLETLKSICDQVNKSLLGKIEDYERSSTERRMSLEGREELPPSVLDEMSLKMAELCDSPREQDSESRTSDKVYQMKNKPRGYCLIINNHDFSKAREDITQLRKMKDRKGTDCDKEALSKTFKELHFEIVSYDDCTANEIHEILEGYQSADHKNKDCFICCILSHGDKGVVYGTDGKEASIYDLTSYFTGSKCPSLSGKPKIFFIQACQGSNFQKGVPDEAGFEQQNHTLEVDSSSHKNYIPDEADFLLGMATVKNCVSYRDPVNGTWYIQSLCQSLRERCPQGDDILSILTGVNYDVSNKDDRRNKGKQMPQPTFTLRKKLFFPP
In words: co-IP.

For assay [7], the target named is T4, FADD (endogenous, mouse) (mouse (endogenous in BMDMs, MDFs, MEFs)) (UniProt Q61160).
T4 sequence: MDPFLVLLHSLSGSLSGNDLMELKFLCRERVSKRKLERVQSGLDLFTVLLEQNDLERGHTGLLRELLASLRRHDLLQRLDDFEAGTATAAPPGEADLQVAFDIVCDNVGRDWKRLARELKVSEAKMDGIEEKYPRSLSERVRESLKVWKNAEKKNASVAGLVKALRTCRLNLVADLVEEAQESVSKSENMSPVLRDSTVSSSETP
In words: co-IP.

Read-outs that look alike come from different tables or passages of the source. No constants are given. Whether binding was seen depends on the method and setting. In cells and extracts the contact can be indirect. Some entries that bind do so weakly or less than the wild type. For some assays here: Where a sequence is shown, tags or fusion partners need not be part of it.

This passage reports binding results from publication doi:10.1101/2021.02.09.430424.

For the molecule “FADD (endogenous, mouse) (from UniProt Q61160 1-205)”, the binding entry in assay [1] is “binds”; in assay [2], “binds”; in assay [3], “binds weakly”; in assay [4] it was “binds”.
For “PARP1 (endogenous, mouse) (from UniProt P11103) (enzyme)”, the binding result in assay [2] was “binds”.

B1: cleaved caspase-8 (endogenous, mouse) (protein, UniProt O89110 1-480)
chain: MDFQSCLYAIAEELGSEDLAALKFLCLDYIPHKKQETIEDAQKLFLRLREKGMLEEGNLSFLKELLFHISRWDLLVNFLDCNREEMVRELRDPDNAQISPYRVMLFKLSEEVSELELRSFKFLLNNEIPKCKLEDDLSLLEIFVEMEKRTMLAENNLETLKSICDQVNKSLLGKIEDYERSSTERRMSLEGREELPPSVLDEMSLKMAELCDSPREQDSESRTSDKVYQMKNKPRGYCLIINNHDFSKAREDITQLRKMKDRKGTDCDKEALSKTFKELHFEIVSYDDCTANEIHEILEGYQSADHKNKDCFICCILSHGDKGVVYGTDGKEASIYDLTSYFTGSKCPSLSGKPKIFFIQACQGSNFQKGVPDEAGFEQQNHTLEVDSSSHKNYIPDEADFLLGMATVKNCVSYRDPVNGTWYIQSLCQSLRERCPQGDDILSILTGVNYDVSNKDDRRNKGKQMPQPTFTLRKKLFFPP
As for B1, the binding result in assay [1] is listed as “binds”; in assay [2], “binds”; in assay [3], “binds weakly”.

B2: C-terminally 3x FLAG tagged caspase-8 from Casp8^C3FLAG knock-in mice (protein, UniProt O89110 1-480)
chain: MDFQSCLYAIAEELGSEDLAALKFLCLDYIPHKKQETIEDAQKLFLRLREKGMLEEGNLSFLKELLFHISRWDLLVNFLDCNREEMVRELRDPDNAQISPYRVMLFKLSEEVSELELRSFKFLLNNEIPKCKLEDDLSLLEIFVEMEKRTMLAENNLETLKSICDQVNKSLLGKIEDYERSSTERRMSLEGREELPPSVLDEMSLKMAELCDSPREQDSESRTSDKVYQMKNKPRGYCLIINNHDFSKAREDITQLRKMKDRKGTDCDKEALSKTFKELHFEIVSYDDCTANEIHEILEGYQSADHKNKDCFICCILSHGDKGVVYGTDGKEASIYDLTSYFTGSKCPSLSGKPKIFFIQACQGSNFQKGVPDEAGFEQQNHTLEVDSSSHKNYIPDEADFLLGMATVKNCVSYRDPVNGTWYIQSLCQSLRERCPQGDDILSILTGVNYDVSNKDDRRNKGKQMPQPTFTLRKKLFFPP
As to B2, the binding entry in assay [4] is on record as “binds”.

B3: tankyrase-1 (endogenous, mouse) (enzyme, UniProt Q6PFX9 1-1320)
chain: MAASRRSQHHHHHHQQQLQPAPGASAPPPPPPPPLSPGLAPGPTPASPTAGGLAPFASPRHGLALPEGDGSRDPPDRPRSPDPVDGAVCTVAAPAAVPAASAAVGVAPTPAGGGGGGGNNSASSASSPTSSSSSSPSSPGSSLAESPEAAGVGSTATLGAGAAGLGPGVPAVSGALRELLEACRNGDVSRVKRLVDAANVNAKDMAGRKSSPLHFAAGFGRKDVVEHLLQMGANVHARDDGGLIPLHNACSFGHAEVVSLLLCQGADPNARDNWNYTPLHEAAIKGKIDVCIVLLQHGADPNIRNTDGKSALDLADPSAKAVLTGEYKKDELLEAARSGNEEKLMALLTPLNVNCHASDGRKSTPLHLAAGYNRVRIVQLLLQHGADVHAKDKGGLVPLHNACSYGHYEVTELLLKHGACVNAMDLWQFTPLHEAASKNRVEVCSLLLSHGADPTLVNCHGKSAVDMAPTPELRERLTYEFKGHSLLQAAREADLAKVKKTLALEIINFKQPQSHETALHCAVASLHPKRKQVAELLLRKGANVNEKNKDFMTPLHVAAERAHNDVMEVLHKHGAKMNALDSLGQTALHRAALAGHLQTCRLLLSYGSDPSIISLQGFTAAQMGNEAVQQILSESTPMRTSDVDYRLLEASKAGDLETVKQLCSPQNVNCRDLEGRHSTPLHFAAGYNRVSVVEYLLHHGADVHAKDKGGLVPLHNACSYGHYEVAELLVRHGASVNVADLWKFTPLHEAAAKGKYEICKLLLKHGADPTKKNRDGNTPLDLVKEGDTDIQDLLRGDAALLDAAKKGCLARVQKLCTPENINCRDTQGRNSTPLHLAAGYNNLEVAEYLLEHGADVNAQDKGGLIPLHNAASYGHVDIAALLIKYNTCVNATDKWAFTPLHEAAQKGRTQLCALLLAHGADPTMKNQEGQTPLDLATADDIRALLIDAMPPEALPTCFKPQATVVSASLISPASTPSCLSAASSIDNLTGPLTDLAVGGASNAGDGAAGAERKEGEVAGLDMNISQFLKSLGLEHLRDIFETEQITLDVLADMGHEELKEIGINAYGHRHKLIKGVERLLGGQQGTNPYLTFHCVNQGTILLDLAPEDKEYQSVEEEMQSTIREHRDGGNAGGIFNRYNVIRIQKVVNKKLRERFCHRQKEVSEENHNHHNERMLFHGSPFINAIIHKGFDERHAYIGGMFGAGIYFAENSSKSNQYVYGIGGGTGCPTHKDRSCYICHRQMLFCRVTLGKSFLQFSTMKMAHAPPGHHSVIGRPSVNGLAYAEYVIYRGEQAYPEYLITYQIMKPEAPSQTATAAEQKT
Consider B3, for which the binding entry in assay [5], in assay [6], in assay [7], in assay [2] and in assay [4] was “binds” in each case.
